The assay has as its target T1, Arabidopsis AtSKD1 (SUPPRESSOR OF K+ TRANSPORT GROWTH DEFECT1) ATPase, pBD-AtSKD1 bait (Arabidopsis thaliana) (UniProt Q9ZNT0).
T1 sequence: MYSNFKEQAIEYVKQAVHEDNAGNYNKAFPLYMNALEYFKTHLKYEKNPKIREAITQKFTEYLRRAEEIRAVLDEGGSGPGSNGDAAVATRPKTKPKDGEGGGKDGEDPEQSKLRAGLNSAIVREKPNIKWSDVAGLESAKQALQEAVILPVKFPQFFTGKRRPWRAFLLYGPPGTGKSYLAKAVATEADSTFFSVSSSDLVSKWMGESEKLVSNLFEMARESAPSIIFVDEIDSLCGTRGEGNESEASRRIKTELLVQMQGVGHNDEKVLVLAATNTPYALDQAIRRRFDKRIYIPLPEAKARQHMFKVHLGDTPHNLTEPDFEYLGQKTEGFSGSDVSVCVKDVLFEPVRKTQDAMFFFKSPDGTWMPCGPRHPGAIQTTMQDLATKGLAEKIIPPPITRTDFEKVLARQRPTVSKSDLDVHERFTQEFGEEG
The assay is described as follows: two-hybrid; yeast co-transformed with pBD-AtSKD1 bait and pAD prey constructs; LacZ reporter, beta-galactosidase activity with ONPG as substrate; empty pAD-Gal4 vector as negative control.

No constants are given. Whether binding was seen depends on the method and setting. Some results given as binding are weak or reduced against the parent protein; the word gives no strength.

B1: Arabidopsis AtLIP5 (LYST-… PROTEIN5), pAD-AtLIP5 prey (protein, UniProt Q9SZ15 1-421)
chain: MSNPNEPARALLPYLQRADELQKHEPLVAYYCRLYAMERGLKIPQSERTKTTNSILMSLINQLEKDKKSLTLSPDDNMHVEGFALSVFAKADKQDRAGRADLGTAKTFYAASIFFEILSQFGPVPPDIEQKHKYAAWKAADIRKAIKEGRKPTPGDPVDDDTDLSIPSSGPSGSYDHSASDTNTTSHHRTELDPPHDSNDDSSHHQFPEVPQHPLPPRFYDNPTNDYPADVPPPPPSSYPSNDHLPPPTGPSDSPYPHPYSHQPYHQDPPKHMPPPQNYSSHEPSPNSLPNFQSYPSFSESSLPSTSPHYPSHYQNPEPYYSSPHSAPAPSSTSFSSAPPPPPYSSNGRINIAPVLDPAPSSAQKYHYDSSYQPGPEKVAEALKAARFAVGALAFDEVSTAVEHLKKSLELLTNPSAGAGH
Regarding B1, the binding entry was “binds”.
